Strings that start with PEPTIDE1 are HELM notation: dots part the residues, brackets hold end groups and non-standard residues.
Assays:
[1] = solid-phase peptide synthesis; details: whole synthesis, TFA salt
[2] = Fmoc solid-phase peptide synthesis; HMP resin; details: whole synthesis, TFA salt

Substance	final purity (method not given) [1]	final purity (method not given) [2]
PEPTIDE1{P.K.K.K.R.K.V.[bAla].K.T.P.K.K.A.K.K.P.K.T.P.K.K.A.K.K.P}$$$$V2.0	greater than 95%	
PEPTIDE1{P.K.K.K.R.K.V}$$$$V2.0	greater than 95%	
PEPTIDE1{A.T.P.A.K.K.A.A.A.T.P.A.K.K.A.A}$$$$V2.0		greater than 95%
PEPTIDE1{K.T.P.K.K.A.K.K.P.K.T.P.K.K.A.K.K.P}$$$$V2.0	greater than 90%	

Reference: patent US5945400A (Rhone-Poulenc Rorer SA, priority 1995, dated 1999)
